Data: the supplement of paper PMC10849652
The list shows a part of the results.

Amino acid sequences for entries named in this document (tags omitted). A change or cut given only in a name is not applied to a line headed by its entry.
UniProt Q8TCD5: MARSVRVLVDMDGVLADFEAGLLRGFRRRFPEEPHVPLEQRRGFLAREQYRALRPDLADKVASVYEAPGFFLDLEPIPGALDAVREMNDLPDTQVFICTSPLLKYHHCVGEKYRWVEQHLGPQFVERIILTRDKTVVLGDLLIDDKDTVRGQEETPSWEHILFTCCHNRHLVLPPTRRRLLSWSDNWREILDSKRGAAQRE
UniProt Q8NFH4: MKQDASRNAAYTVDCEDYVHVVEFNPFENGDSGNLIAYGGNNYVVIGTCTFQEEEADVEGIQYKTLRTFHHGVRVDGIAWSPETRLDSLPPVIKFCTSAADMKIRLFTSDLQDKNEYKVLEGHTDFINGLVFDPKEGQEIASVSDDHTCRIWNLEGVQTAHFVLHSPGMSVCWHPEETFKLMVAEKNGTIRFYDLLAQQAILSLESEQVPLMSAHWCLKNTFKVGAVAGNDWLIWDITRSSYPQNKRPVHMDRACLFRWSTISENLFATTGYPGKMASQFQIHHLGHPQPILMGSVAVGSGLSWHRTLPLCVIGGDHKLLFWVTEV
UniProt Q8N1F7: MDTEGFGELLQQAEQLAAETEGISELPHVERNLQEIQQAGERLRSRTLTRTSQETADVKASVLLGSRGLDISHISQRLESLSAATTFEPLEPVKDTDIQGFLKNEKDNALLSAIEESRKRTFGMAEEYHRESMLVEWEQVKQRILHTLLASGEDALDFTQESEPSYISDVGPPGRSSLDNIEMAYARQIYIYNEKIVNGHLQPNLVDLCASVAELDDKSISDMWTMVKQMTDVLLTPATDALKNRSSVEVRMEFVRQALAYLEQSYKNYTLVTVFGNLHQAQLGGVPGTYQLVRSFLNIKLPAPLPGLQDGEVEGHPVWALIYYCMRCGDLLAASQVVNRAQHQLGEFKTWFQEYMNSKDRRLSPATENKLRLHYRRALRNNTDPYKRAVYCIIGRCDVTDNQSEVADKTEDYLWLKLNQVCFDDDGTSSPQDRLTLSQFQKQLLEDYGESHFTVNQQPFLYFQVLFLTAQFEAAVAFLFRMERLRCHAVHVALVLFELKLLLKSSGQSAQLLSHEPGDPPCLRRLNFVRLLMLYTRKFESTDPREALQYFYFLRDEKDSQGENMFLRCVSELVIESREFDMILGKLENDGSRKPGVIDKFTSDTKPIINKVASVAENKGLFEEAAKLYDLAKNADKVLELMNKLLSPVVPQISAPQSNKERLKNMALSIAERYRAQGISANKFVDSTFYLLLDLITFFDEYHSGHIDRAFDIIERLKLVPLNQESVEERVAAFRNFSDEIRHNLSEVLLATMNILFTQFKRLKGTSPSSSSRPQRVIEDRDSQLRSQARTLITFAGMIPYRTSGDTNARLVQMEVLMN
UniProt Q8IVD9: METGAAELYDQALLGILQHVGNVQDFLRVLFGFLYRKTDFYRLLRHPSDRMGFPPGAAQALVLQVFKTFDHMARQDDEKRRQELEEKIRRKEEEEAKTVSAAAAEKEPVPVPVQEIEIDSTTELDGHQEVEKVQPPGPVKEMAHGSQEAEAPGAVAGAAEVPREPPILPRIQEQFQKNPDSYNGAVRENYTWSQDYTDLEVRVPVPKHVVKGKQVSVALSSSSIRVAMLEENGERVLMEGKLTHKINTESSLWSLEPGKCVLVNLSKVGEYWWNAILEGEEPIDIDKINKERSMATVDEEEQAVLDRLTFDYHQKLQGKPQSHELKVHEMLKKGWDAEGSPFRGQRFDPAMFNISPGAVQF
UniProt Q13438: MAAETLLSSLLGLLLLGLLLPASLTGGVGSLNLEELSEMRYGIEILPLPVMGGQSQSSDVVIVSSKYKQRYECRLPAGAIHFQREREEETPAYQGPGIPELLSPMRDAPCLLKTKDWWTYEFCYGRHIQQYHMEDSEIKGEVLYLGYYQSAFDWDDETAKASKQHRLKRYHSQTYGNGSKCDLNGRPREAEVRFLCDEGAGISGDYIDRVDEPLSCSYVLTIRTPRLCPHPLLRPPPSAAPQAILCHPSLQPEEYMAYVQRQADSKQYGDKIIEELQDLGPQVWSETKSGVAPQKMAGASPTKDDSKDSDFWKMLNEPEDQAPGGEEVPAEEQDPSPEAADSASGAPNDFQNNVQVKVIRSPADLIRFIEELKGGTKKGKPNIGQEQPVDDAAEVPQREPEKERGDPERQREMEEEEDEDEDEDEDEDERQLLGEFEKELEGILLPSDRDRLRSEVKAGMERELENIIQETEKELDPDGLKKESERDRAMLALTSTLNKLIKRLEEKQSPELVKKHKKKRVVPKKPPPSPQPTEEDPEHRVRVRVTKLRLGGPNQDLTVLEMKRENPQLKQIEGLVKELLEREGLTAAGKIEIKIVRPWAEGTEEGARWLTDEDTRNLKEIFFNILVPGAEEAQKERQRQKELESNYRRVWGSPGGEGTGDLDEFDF
UniProt Q8WUM0: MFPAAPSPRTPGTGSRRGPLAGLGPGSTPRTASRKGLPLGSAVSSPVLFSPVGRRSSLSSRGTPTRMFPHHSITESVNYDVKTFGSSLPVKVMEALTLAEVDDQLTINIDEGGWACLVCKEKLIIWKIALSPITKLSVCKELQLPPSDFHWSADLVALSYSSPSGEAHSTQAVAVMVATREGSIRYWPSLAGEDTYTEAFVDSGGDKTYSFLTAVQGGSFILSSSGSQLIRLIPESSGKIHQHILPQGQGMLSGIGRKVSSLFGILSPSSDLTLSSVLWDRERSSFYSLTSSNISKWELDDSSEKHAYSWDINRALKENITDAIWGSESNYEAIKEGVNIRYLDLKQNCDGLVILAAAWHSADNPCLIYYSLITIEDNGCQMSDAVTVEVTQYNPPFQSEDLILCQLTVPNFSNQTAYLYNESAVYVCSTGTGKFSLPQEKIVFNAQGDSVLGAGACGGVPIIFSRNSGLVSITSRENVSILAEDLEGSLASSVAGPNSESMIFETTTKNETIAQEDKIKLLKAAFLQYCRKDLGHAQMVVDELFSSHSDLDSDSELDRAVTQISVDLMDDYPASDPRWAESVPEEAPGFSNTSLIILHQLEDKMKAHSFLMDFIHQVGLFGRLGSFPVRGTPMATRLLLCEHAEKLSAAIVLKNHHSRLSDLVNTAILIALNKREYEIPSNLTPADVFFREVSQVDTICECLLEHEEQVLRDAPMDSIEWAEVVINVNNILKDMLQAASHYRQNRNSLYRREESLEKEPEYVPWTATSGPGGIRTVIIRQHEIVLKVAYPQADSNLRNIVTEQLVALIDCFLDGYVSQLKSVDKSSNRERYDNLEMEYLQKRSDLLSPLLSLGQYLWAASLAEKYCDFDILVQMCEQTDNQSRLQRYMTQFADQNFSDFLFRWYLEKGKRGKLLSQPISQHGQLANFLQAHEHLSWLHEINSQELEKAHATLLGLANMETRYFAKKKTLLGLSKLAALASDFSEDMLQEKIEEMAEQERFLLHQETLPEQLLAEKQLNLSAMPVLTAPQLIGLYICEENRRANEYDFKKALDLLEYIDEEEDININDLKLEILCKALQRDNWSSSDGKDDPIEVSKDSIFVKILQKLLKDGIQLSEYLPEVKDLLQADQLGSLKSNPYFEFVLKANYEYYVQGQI
UniProt Q9UKX7: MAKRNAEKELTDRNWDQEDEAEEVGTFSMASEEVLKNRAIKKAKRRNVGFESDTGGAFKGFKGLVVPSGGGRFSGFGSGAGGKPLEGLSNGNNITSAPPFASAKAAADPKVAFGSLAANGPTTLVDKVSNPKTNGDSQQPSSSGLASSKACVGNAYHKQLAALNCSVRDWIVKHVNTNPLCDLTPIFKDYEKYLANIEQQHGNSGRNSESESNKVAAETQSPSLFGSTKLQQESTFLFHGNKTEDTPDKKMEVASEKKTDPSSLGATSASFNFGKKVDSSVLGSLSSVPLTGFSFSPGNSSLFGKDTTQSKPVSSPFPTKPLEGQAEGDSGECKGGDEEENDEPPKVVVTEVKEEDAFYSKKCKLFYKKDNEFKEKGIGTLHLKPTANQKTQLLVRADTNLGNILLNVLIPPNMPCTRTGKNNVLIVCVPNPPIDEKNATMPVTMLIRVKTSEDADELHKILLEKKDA
UniProt Q96FW1, whole entry, looked up: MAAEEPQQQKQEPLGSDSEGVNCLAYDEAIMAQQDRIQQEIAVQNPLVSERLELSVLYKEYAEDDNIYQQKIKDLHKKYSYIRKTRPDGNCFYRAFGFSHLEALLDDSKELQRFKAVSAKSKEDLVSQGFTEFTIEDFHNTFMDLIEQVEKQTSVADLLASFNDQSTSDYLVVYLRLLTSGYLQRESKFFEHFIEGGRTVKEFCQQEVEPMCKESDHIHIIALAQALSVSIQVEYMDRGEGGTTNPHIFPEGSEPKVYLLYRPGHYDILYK
UniProt Q9UQ80: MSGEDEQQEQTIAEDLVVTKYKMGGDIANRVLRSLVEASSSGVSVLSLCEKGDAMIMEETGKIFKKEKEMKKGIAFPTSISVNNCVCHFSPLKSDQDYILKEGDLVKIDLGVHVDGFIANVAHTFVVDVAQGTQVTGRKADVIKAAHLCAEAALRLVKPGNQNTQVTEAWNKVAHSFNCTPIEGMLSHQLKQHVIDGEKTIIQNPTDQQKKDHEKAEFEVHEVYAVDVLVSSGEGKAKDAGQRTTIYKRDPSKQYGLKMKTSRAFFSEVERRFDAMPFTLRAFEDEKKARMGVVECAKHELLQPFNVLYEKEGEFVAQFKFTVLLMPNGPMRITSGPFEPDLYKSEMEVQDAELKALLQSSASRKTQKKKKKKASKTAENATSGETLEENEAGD
UniProt A8MXV4: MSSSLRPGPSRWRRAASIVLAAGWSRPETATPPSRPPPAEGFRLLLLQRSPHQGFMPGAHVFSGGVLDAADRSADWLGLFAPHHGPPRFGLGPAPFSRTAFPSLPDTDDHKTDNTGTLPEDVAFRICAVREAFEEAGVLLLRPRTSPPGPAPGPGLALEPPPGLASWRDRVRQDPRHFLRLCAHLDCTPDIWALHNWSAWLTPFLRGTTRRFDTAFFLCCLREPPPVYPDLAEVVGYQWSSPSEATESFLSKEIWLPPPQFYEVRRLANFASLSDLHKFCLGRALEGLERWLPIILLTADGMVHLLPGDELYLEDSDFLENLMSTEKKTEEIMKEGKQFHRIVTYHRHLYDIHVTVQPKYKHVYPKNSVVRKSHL
UniProt Q9BXS6: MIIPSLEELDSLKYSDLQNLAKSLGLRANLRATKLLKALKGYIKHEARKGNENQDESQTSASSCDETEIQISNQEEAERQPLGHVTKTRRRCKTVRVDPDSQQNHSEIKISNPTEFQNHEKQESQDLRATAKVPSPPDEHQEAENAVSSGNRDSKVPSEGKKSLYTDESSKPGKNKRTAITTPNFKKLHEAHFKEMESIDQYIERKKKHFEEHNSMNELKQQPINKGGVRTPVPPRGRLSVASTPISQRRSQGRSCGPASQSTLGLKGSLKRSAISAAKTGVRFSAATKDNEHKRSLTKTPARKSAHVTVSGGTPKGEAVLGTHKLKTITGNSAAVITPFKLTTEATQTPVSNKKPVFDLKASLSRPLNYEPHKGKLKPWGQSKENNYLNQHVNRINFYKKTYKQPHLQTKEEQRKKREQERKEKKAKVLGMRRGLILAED
UniProt Q9Y5A7: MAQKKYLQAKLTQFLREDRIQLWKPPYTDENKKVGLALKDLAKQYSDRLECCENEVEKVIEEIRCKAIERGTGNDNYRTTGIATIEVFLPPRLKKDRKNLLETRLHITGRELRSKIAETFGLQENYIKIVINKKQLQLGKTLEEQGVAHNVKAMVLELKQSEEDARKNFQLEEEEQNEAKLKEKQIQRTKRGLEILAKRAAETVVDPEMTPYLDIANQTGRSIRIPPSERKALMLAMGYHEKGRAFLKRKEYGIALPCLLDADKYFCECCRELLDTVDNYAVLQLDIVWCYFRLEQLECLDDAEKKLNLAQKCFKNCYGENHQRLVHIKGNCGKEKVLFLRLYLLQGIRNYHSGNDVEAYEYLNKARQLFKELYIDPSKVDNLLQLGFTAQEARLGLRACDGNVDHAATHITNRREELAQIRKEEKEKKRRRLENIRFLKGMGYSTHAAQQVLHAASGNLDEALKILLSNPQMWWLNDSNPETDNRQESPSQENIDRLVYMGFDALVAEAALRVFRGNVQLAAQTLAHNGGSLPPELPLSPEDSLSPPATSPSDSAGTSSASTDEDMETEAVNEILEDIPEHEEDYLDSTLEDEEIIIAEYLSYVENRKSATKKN
UniProt Q9BRJ7: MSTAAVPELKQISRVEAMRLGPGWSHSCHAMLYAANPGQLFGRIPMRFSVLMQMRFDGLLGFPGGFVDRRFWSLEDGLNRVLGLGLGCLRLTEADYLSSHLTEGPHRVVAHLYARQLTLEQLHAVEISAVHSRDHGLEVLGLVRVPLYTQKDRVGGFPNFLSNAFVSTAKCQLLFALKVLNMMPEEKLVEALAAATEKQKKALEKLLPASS
UniProt O95989: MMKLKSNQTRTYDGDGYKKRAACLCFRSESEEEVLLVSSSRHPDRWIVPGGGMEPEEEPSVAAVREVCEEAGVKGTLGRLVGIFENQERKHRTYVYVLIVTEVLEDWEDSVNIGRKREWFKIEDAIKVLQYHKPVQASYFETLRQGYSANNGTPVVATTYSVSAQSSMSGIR

compound: CCn1c(C(=O)N(C2CC2)C2CC2)cc2c3c(ncn3C)c(Nc3cc(C)n(C)n3)nc21; experiment: log2 fold change, soluble protein after heating vs DMSO (PISA); higher = thermal stabilisation; K562 cells, 10 uM, 30 min; active = over 0.2 and 3.5 SD of the protein, either way, in both replicates (recomputed)
How it was run: (§1)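 Soluble protein was defined as the supernatant after 21,000xg for 90 min. It came from K562 cells at 2×10^6 cells/mL given 10 μM compound for 30 min, heated in aliquots for 3 min across 48°C-58°C, pooled, and extracted in PBS with 0.5% NP-40 at 4°C, and was quantified by TMTpro 16plex LC-MS/MS with equalised channel sums. Thermal stability against control samples, from duplicates, is reported as log2 fold change.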

log2 fold change, inactive:
NSUN6 (UniProt Q8TEA1) -0.012
NT5C (UniProt Q8TCD5) -0.009
NUP37 (UniProt Q8NFH4) -0.008
NUP93 (UniProt Q8N1F7) -0.059
OSBPL6 isoform 5 (UniProt Q9BZF3) -0.066
NUCB1 (UniProt Q02818) 0.035
NUDCD3 (UniProt Q8IVD9) 0.004
P4HB (UniProt P07237) 0.054
P4HA1 (UniProt P13674) 0.032
OTC (UniProt P00480) -0.033
OS9 (UniProt Q13438) -0.021
NUP133 (UniProt Q8WUM0) -0.065
NUP50 (UniProt Q9UKX7) 0.017
NUCB2 (UniProt P80303) 0.016
OIP5 (UniProt O43482) -0.019
OTUB1 (UniProt Q96FW1) -0.001
PA2G4 (UniProt Q9UQ80) -0.01
NUDT19 (UniProt A8MXV4) 0.008
NUSAP1 (UniProt Q9BXS6) 0.035
NT5DC2 isoform 2 (UniProt Q9H857) 0.003
NUBP2 (UniProt Q9Y5Y2) -0.018
NUB1 (UniProt Q9Y5A7) -0.046
ORC4 (UniProt O43929) -0.062
NUDT16L1 (UniProt Q9BRJ7) 0.018
NUDCD1 (UniProt Q96RS6) 0.001
NUP214 isoform 5 (UniProt P35658) -0.054
OMA1 (UniProt Q96E52) -0.003
OXCT1 (UniProt P55809) -0.011
NSRP1 (UniProt Q9H0G5) 0.011
NUDT3 (UniProt O95989) 0.049

compound: CCn1cc(-c2ccnc3[nH]c(-c4cccc(CN(C)C)c4)cc23)c(-c2ccc(NC(=O)N(C)C)cc2)n1; experiment: as above
How it was run: as §1

log2 fold change, inactive:
NSUN6 (UniProt Q8TEA1) -0.063
NT5C (UniProt Q8TCD5) -0.051
NUP37 (UniProt Q8NFH4) -0.004
NUP93 (UniProt Q8N1F7) -0.002
NUCB1 (UniProt Q02818) 0.027
NUDCD3 (UniProt Q8IVD9) -0.102
P4HB (UniProt P07237) 0.014
P4HA1 (UniProt P13674) 0.059
OTC (UniProt P00480) 0.104
OS9 (UniProt Q13438) -0.009
NUP133 (UniProt Q8WUM0) 0.048
NUP50 (UniProt Q9UKX7) -0.048
NUCB2 (UniProt P80303) 0.003
OIP5 (UniProt O43482) -0.013
OTUB1 (UniProt Q96FW1) -0.032
PA2G4 (UniProt Q9UQ80) -0.078
NUDT19 (UniProt A8MXV4) -0.091
NUSAP1 (UniProt Q9BXS6) 0.111
NT5DC2 isoform 2 (UniProt Q9H857) -0.031
NUBP2 (UniProt Q9Y5Y2) -0.09
NUB1 (UniProt Q9Y5A7) 0.034
ORC4 (UniProt O43929) -0.148
NUDT16L1 (UniProt Q9BRJ7) 0.002
NUDCD1 (UniProt Q96RS6) -0.069
NUP214 isoform 5 (UniProt P35658) 0.08
OMA1 (UniProt Q96E52) -0.038
OXCT1 (UniProt P55809) -0.069
NSRP1 (UniProt Q9H0G5) 0.095
NUDT3 (UniProt O95989) -0.068

compound: CN(C)CC(=O)Nc1ccc2[nH]c(=O)c3ccccc3c2c1; experiment: as above
How it was run: as §1

log2 fold change, inactive:
NSUN6 (UniProt Q8TEA1) -0.022
NT5C (UniProt Q8TCD5) -0.04
NUP37 (UniProt Q8NFH4) -0.01
NUP93 (UniProt Q8N1F7) 0.036
NUCB1 (UniProt Q02818) -0.039
NUDCD3 (UniProt Q8IVD9) 0.03
P4HB (UniProt P07237) -0.048
P4HA1 (UniProt P13674) -0.014
OTC (UniProt P00480) -0.087
OS9 (UniProt Q13438) -0.036
NUP133 (UniProt Q8WUM0) 0.009
NUP50 (UniProt Q9UKX7) -0.026
NUCB2 (UniProt P80303) -0.027
OIP5 (UniProt O43482) 0.005
OTUB1 (UniProt Q96FW1) 0.007
PA2G4 (UniProt Q9UQ80) -0.016
NUDT19 (UniProt A8MXV4) 0.029
NUSAP1 (UniProt Q9BXS6) -0.047
NT5DC2 isoform 2 (UniProt Q9H857) -0.026
NUBP2 (UniProt Q9Y5Y2) 0.038
NUB1 (UniProt Q9Y5A7) 0.073
ORC4 (UniProt O43929) 0.011
NUDT16L1 (UniProt Q9BRJ7) 0.021
NUDCD1 (UniProt Q96RS6) 0.022
NUP214 isoform 5 (UniProt P35658) 0.02
OMA1 (UniProt Q96E52) -0.025
OXCT1 (UniProt P55809) -0.005
NSRP1 (UniProt Q9H0G5) -0.066
NUDT3 (UniProt O95989) 0
